The supplement of paper PMC10849652
The other results are listed elsewhere or left out.

The chains behind the UniProt entries cited, without tags or fusion partners. Where a name states a change or a piece, a line headed by the entry shows the natural chain unless it says otherwise.
UniProt P62316, whole entry, looked up: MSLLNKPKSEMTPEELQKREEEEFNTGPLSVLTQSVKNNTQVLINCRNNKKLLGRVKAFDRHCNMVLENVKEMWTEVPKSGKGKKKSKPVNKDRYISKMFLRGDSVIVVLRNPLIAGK
UniProt P09012, whole entry, looked up: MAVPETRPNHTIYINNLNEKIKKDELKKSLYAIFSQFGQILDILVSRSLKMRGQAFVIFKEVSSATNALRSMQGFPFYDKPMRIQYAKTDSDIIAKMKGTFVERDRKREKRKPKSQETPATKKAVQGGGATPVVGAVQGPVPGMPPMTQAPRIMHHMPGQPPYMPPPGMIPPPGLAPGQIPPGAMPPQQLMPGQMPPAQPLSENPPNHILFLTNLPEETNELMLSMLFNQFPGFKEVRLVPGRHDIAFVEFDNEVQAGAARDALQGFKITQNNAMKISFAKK
UniProt Q6GMV2: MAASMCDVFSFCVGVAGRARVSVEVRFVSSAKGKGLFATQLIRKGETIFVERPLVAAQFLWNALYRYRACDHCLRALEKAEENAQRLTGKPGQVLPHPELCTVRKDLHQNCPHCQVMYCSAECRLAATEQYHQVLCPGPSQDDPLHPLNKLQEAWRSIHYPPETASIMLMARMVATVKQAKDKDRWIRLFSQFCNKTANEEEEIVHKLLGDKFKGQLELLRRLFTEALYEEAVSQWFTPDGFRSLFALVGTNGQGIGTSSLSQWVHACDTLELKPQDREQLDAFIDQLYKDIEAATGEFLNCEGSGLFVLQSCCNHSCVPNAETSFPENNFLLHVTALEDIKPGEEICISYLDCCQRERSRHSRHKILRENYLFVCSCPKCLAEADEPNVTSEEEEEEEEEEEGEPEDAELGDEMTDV
UniProt P57768: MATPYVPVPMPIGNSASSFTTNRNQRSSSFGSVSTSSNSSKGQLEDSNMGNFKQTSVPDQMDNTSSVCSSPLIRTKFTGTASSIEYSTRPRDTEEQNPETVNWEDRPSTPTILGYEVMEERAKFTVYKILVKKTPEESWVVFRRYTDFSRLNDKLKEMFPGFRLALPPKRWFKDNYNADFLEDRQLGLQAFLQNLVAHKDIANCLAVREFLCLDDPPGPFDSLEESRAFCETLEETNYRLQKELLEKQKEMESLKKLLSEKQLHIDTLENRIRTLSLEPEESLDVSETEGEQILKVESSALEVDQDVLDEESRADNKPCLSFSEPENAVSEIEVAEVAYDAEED
UniProt O14508, whole entry, looked up: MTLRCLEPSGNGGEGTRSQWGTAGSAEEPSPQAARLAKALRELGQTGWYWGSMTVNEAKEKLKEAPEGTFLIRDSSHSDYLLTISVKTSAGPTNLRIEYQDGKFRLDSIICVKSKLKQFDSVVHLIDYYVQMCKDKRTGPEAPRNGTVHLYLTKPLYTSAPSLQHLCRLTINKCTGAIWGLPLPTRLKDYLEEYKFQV
UniProt Q13485: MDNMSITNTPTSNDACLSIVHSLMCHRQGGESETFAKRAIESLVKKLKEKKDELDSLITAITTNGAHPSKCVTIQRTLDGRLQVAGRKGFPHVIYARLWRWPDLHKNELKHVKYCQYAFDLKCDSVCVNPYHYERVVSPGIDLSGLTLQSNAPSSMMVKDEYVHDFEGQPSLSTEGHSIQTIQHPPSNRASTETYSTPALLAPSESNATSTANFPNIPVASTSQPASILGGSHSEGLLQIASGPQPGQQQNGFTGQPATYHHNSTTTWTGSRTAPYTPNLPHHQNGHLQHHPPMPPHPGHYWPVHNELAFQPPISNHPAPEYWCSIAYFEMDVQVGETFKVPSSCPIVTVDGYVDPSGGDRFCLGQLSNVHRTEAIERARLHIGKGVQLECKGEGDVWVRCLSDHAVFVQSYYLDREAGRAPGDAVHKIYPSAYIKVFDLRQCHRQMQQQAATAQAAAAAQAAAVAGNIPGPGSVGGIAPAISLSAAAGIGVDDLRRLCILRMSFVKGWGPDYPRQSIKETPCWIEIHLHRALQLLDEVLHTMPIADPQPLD
UniProt Q15599: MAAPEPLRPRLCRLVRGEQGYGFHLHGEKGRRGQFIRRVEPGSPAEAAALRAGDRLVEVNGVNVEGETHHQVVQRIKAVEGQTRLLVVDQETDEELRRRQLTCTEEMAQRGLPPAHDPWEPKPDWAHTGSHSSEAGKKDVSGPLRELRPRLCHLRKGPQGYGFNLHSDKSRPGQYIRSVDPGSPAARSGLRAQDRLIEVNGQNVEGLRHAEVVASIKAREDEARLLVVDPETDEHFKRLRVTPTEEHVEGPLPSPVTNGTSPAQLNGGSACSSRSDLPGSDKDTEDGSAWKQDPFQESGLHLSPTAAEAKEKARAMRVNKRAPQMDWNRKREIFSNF
UniProt Q9NTJ3, whole entry, looked up: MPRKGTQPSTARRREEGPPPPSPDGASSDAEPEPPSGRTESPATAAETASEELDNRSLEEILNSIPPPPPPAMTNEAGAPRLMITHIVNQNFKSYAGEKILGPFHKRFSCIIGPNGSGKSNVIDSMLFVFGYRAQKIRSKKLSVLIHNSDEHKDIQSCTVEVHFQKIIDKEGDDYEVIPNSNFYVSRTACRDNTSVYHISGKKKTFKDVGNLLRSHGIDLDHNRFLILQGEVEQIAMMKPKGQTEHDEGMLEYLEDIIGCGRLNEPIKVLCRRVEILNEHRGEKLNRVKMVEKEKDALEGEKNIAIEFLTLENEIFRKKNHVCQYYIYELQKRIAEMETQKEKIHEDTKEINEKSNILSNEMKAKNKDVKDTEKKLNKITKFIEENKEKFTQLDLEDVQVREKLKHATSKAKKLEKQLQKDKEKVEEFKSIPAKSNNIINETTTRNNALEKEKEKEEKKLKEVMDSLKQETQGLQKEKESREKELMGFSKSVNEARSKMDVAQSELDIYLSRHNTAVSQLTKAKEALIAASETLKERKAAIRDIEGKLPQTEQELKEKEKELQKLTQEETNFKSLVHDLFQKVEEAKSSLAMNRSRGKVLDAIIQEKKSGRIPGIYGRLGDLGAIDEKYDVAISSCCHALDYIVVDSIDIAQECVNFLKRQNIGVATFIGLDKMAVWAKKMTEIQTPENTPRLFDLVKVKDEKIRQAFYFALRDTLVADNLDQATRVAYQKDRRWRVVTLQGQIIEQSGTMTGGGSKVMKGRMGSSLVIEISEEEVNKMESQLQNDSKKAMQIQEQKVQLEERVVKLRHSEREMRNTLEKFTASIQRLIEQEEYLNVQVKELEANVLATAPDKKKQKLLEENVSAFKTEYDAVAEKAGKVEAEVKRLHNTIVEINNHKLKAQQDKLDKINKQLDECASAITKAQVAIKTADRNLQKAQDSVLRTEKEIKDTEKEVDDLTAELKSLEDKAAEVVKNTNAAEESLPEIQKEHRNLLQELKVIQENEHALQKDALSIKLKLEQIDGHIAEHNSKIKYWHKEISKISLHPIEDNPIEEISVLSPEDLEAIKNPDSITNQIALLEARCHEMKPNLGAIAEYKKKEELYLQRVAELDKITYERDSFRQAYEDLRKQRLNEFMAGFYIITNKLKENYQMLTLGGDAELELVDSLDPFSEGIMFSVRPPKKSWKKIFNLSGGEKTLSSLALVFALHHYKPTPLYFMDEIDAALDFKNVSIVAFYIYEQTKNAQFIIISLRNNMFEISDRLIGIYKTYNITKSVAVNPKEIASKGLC
UniProt P62304, whole entry, looked up: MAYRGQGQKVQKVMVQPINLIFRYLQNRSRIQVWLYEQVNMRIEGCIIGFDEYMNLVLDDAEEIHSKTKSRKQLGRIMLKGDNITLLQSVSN
UniProt P62308, whole entry, looked up: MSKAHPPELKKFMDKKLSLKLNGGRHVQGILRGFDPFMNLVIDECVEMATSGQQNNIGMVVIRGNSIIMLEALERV
UniProt Q14683: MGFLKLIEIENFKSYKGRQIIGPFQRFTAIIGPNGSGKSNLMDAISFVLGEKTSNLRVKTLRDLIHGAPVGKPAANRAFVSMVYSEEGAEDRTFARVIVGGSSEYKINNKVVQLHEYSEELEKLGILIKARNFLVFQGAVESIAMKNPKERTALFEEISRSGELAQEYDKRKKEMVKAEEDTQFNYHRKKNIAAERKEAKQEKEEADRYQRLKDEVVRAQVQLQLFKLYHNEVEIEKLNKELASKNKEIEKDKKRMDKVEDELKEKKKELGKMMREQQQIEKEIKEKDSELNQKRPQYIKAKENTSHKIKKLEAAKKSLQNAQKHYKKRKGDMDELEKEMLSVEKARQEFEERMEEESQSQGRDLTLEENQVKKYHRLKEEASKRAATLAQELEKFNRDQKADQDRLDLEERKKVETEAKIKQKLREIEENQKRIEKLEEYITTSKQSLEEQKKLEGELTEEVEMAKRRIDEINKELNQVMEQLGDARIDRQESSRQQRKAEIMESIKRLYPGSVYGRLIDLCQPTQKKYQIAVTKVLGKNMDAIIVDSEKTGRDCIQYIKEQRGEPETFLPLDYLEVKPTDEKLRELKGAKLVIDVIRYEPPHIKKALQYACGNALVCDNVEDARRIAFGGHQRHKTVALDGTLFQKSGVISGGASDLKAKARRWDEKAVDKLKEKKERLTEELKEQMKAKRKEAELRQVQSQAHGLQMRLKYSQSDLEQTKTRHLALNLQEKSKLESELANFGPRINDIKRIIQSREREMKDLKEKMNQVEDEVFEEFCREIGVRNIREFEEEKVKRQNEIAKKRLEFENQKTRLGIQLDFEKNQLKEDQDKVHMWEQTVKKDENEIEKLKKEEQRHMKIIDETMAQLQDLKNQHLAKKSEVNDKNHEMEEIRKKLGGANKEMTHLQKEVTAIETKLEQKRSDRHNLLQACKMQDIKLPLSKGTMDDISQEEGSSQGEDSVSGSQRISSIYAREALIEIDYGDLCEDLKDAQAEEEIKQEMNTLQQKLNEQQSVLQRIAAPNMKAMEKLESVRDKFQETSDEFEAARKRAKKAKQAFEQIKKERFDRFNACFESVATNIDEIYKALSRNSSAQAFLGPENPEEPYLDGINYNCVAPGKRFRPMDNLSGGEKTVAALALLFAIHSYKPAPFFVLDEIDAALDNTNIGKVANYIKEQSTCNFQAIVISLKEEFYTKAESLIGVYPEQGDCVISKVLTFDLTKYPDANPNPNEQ
UniProt O75940: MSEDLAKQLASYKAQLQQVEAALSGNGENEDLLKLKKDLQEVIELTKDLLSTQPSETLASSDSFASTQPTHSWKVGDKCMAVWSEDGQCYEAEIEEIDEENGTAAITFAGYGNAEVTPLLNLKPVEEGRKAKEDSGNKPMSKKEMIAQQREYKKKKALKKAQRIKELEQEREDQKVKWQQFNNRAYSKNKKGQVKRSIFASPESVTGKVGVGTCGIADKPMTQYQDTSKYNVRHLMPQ
UniProt O00161: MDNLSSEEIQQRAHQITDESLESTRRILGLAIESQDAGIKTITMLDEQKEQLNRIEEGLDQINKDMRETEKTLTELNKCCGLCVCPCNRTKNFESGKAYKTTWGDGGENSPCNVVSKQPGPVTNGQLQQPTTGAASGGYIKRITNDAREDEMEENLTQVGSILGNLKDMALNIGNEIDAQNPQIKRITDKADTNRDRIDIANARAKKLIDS

How the values were obtained:
Experiment in all cases: log2 fold change, soluble protein after heating vs DMSO (PISA); higher = thermal stabilisation; K562 cells, 10 uM, 30 min; active = over 0.2 and 3.5 SD of the protein, either way, in both replicates (recomputed)
[1] = compound: CC1=C(C=C(C=C1)NC(=O)C2=CC(=CC=C2)C(C)(C)C#N)NC3=CC4=C(C=C3)N=CN(C4=O)C
Outline: (§1)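 K562 cells at 2×10^6 cells/mL were given 10 μM compound for 30 min. Aliquots then went through 3 min of heating across 48°C-58°C, were pooled, and were extracted in PBS with 0.5% NP-40 at 4°C, and the supernatant after 21,000xg for 90 min was quantified by TMTpro 16plex LC-MS/MS with channel sums equalised. Thermal stability relative to control samples, from duplicates, is given as log2 fold change.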

[2] = compound: CC1=C(C=C(C=C1)NC(=O)C2=CC(=CC=C2)N(C)C)NC(=O)C3=CC=C(C=C3)O
Outline: as §1

[3] = compound: CC1=CC=C(C=C1)SC2=C3C=C(SC3=CN=C2)C(=O)N
Outline: as §1

[4] = compound: CC1=NC(=CC=C1)C2=C(N=C(N2)C(C)(C)C)C3=CC4=NC=CN=C4C=C3
Outline: as §1

Nexturastat A = compound: CCCCN(Cc1ccc(C(=O)NO)cc1)C(=O)Nc1ccccc1 [Nexturastat A]
Outline: as §1

vemurafenib = compound: CCCS(=O)(=O)Nc1ccc(F)c(C(=O)c2c[nH]c3ncc(-c4ccc(Cl)cc4)cc23)c1F [vemurafenib]
Outline: as §1

[5] = compound: CCCS(=O)(=O)Nc1ccc(F)c(C(=O)c2c[nH]c3ncc(Cl)cc23)c1F
Outline: as §1

[6] = compound: CCCc1cc(C)[nH]c(=O)c1CNC(=O)c1cc(-c2ccnc(N3CCN(C)CC3)c2)cc2c1cnn2C(C)C
Outline: as §1

givinostat = compound: CCN(CC)Cc1ccc2cc(COC(=O)Nc3ccc(C(=O)NO)cc3)ccc2c1 [givinostat]
Outline: as §1

barasertib = compound: CCN(CCCOc1ccc2c(Nc3cc(CC(=O)Nc4cccc(F)c4)[nH]n3)ncnc2c1)CCOP(=O)(O)O [barasertib]
Outline: as §1

[7] = compound: CC[C@@H]1C(=O)N(C)c2cnc(Nc3ccc(C(=O)NC4CCN(C)CC4)cc3OC)nc2N1C1CCCC1
Outline: as §1

volasertib = compound: CC[C@@H]1C(=O)N(C)c2cnc(Nc3ccc(C(=O)N[C@H]4CC[C@H](N5CCN(CC6CC6)CC5)CC4)cc3OC)nc2N1C(C)C [volasertib]
Outline: as §1

[8] = compound: CC[C@H](C)N1C=C(C2=C(C=C(C=C21)C3=CN=C(C=C3)N4CCNCC4)C(=O)NCC5=C(C=C(NC5=O)C)C)C
Outline: as §1

epoxomicin = compound: CC[C@H](C)[C@@H](C(=O)N[C@@H]([C@@H](C)O)C(=O)N[C@@H](CC(C)C)C(=O)[C@]1(CO1)C)NC(=O)[C@H]([C@@H](C)CC)N(C)C(=O)C [epoxomicin]
Outline: as §1

[9] = compound: CCn1c(C(=O)N(C2CC2)C2CC2)cc2c3c(ncn3C)c(Nc3cc(C)n(C)n3)nc21
Outline: as §1

[10] = compound: CCn1cc(-c2ccnc3[nH]c(-c4cccc(CN(C)C)c4)cc23)c(-c2ccc(NC(=O)N(C)C)cc2)n1
Outline: as §1

[11] = compound: CN(C)CC(=O)Nc1ccc2[nH]c(=O)c3ccccc3c2c1
Outline: as §1

rosiglitazone = compound: CN(CCOC1=CC=C(C=C1)C[C@H]2C(=O)NC(=O)S2)C3=CC=CC=N3 (racemic) [rosiglitazone]
Outline: as §1

[12] = compound: CN1C2=C(C3=C1C(=O)N(N=C3)CC4=CC(=CC=C4)N)SC(=C2)S(=O)C
Outline: as §1

[13] = compound: CN1CCC(CNc2ccc3ncc(-c4cccc(OC(F)(F)F)c4)n3n2)CC1
Outline: as §1

Measured: log2 fold change

SNRPD2 (UniProt P62316)
inactive: [1] -0.007 | [2] 0.016 | [3] -0.066 | [4] -0.016 | Nexturastat A 0.022 | vemurafenib -0.026 | [5] -0.075 | [6] -0.032 | givinostat -0.029 | barasertib -0.03 | [7] 0.127 | volasertib 0.157 | [8] -0.063 | epoxomicin -0.075 | [9] 0.011 | [10] 0.08 | [11] -0.069 | rosiglitazone -0.032 | [12] 0.036 | [13] 0.134

SNRPA (UniProt P09012)
inactive: [1] -0.027 | [2] 0.039 | [3] -0.087 | [4] -0.051 | Nexturastat A 0.133 | vemurafenib -0.024 | [5] -0.085 | [6] -0.019 | givinostat -0.071 | barasertib -0.114 | [7] 0.234 | volasertib 0.202 | [8] -0.091 | epoxomicin -0.118 | [9] 0.029 | [10] 0.135 | [11] -0.037 | rosiglitazone -0.117 | [12] 0.069 | [13] 0.158

SMYD5 (UniProt Q6GMV2)
inactive: [1] 0.004 | [2] 0.041 | [3] 0 | [4] 0.069 | Nexturastat A -0.152 | vemurafenib -0.022 | [5] 0.03 | [6] 0.019 | givinostat -0.069 | barasertib 0.013 | [7] -0.02 | volasertib -0.104 | [8] 0.059 | epoxomicin 0.088 | [9] -0.01 | [10] 0.032 | [11] 0.008 | rosiglitazone -0.017 | [12] -0.081 | [13] 0.045

SNX16 (UniProt P57768)
inactive: [1] 0.008 | [2] -0.003 | [3] 0.081 | [4] 0.058 | Nexturastat A -0.067 | vemurafenib 0.027 | [5] 0.114 | [6] -0.047 | givinostat -0.031 | barasertib -0.056 | [7] 0.172 | volasertib -0.13 | [8] 0.003 | epoxomicin 0.04 | [9] -0.288 | [10] 0.018 | [11] -0.05 | rosiglitazone -0.114 | [12] -0.06 | [13] -0.027

SNU13, A0A3B3IUA2
inactive: [1] -0.052 | [2] 0.063 | [3] -0.041 | [4] -0.033 | Nexturastat A -0.015 | vemurafenib -0.112 | [5] -0.11 | [6] -0.032 | givinostat 0.046 | barasertib 0.035 | [7] 0.097 | volasertib 0.038 | [8] -0.168 | epoxomicin -0.045 | [9] -0.027 | [10] 0.1 | [11] -0.063 | rosiglitazone 0.015 | [12] -0.028 | [13] -0.15

SOCS2 (UniProt O14508)
inactive: [1] 0.023 | [2] -0.052 | [3] -0.013 | [4] 0.124 | Nexturastat A -0.021 | vemurafenib 0.051 | [5] 0.008 | [6] -0.087 | givinostat -0.053 | barasertib 0.045 | [7] 0.08 | volasertib -0.049 | [8] -0.048 | epoxomicin 0.097 | [9] -0.032 | [10] -0.032 | [11] -0.001 | rosiglitazone 0.003 | [12] 0.002 | [13] -0.073

SNRPB isoform 3 (UniProt P14678)
inactive: [1] -0.009 | [2] 0.025 | [3] -0.039 | [4] -0.042 | Nexturastat A 0.065 | vemurafenib -0.011 | [5] -0.05 | [6] -0.073 | givinostat -0.019 | barasertib -0.106 | [7] 0.158 | volasertib 0.182 | [8] -0.078 | epoxomicin -0.08 | [9] -0.015 | [10] 0.023 | [11] -0.022 | rosiglitazone -0.061 | [12] 0.071 | [13] 0.28

SMAD4 (UniProt Q13485)
inactive: [1] -0.094 | [2] -0.045 | [3] 0.027 | [4] 0.011 | Nexturastat A 0.017 | vemurafenib -0.016 | [5] 0.045 | [6] -0.025 | givinostat 0.025 | barasertib 0.03 | [7] -0.012 | volasertib -0.101 | [8] 0.048 | epoxomicin -0.005 | [9] 0.005 | [10] -0.008 | [11] 0.015 | rosiglitazone 0.028 | [12] -0.054 | [13] 0.019

SLC9A3R2 (UniProt Q15599)
inactive: [1] -0.018 | [2] 0.016 | [3] 0 | [4] -0.016 | Nexturastat A -0.015 | vemurafenib -0.047 | [5] 0.052 | [6] -0.042 | givinostat -0.016 | barasertib -0.022 | [7] 0.014 | volasertib -0.016 | [8] -0.022 | epoxomicin -0.001 | [9] -0.013 | [10] -0.04 | [11] -0.047 | rosiglitazone 0.006 | [12] -0.008 | [13] 0.011

SMC4 (UniProt Q9NTJ3)
inactive: [1] 0.01 | [2] -0.038 | [3] -0.001 | [4] -0.008 | Nexturastat A 0.039 | vemurafenib 0.031 | [5] 0.049 | [6] 0.037 | givinostat 0.046 | barasertib 0.025 | [7] -0.076 | volasertib -0.181 | [8] 0.063 | epoxomicin -0.008 | [9] -0.013 | [10] -0.005 | [11] 0.017 | rosiglitazone 0.021 | [12] 0.037 | [13] -0.054

SNRPE (UniProt P62304)
inactive: [1] -0.016 | [2] 0.003 | [3] -0.052 | [4] -0.018 | Nexturastat A -0.036 | vemurafenib -0.042 | [5] -0.035 | [6] -0.052 | givinostat -0.032 | barasertib -0.027 | [7] 0.135 | volasertib 0.086 | [8] -0.026 | epoxomicin -0.088 | [9] -0.013 | [10] 0.086 | [11] -0.038 | rosiglitazone -0.018 | [12] -0.01 | [13] 0.129

SNRPG (UniProt P62308)
inactive: [1] 0.007 | [2] -0.003 | [3] -0.001 | [4] -0.074 | Nexturastat A 0.04 | vemurafenib -0.032 | [5] -0.05 | [6] -0.07 | givinostat -0.05 | barasertib -0.012 | [7] 0.069 | volasertib 0.118 | [8] -0.111 | epoxomicin -0.112 | [9] 0.026 | [10] 0.025 | [11] 0.058 | rosiglitazone -0.001 | [12] 0.07 | [13] 0.099

SMC1A (UniProt Q14683)
inactive: [1] -0.03 | [2] -0.008 | [3] -0.008 | [4] 0.018 | Nexturastat A 0.016 | vemurafenib 0.028 | [5] 0.041 | [6] -0.014 | givinostat 0.084 | barasertib 0.007 | [7] -0.019 | volasertib -0.086 | [8] 0.011 | epoxomicin 0.027 | [9] -0.029 | [10] 0.037 | [11] -0.012 | rosiglitazone -0.009 | [12] -0.032 | [13] -0.065

SMNDC1 (UniProt O75940)
inactive: [1] 0.01 | [2] -0.024 | [3] -0.011 | [4] -0.012 | Nexturastat A 0.029 | vemurafenib 0.01 | [5] -0.052 | [6] -0.102 | givinostat -0.033 | barasertib -0.01 | [7] 0.111 | volasertib 0.073 | [8] -0.046 | epoxomicin 0.012 | [9] 0.001 | [10] 0.049 | [11] -0.014 | rosiglitazone -0.025 | [12] -0.018 | [13] 0.077

SNAP23 (UniProt O00161)
inactive: [1] -0.007 | [2] 0.017 | [3] -0.012 | [4] 0.017 | Nexturastat A -0.061 | vemurafenib 0.025 | [5] -0.023 | [6] -0.039 | givinostat -0.045 | barasertib 0.003 | [7] 0.048 | volasertib 0.095 | [8] -0.031 | epoxomicin 0.005 | [9] 0.067 | [10] 0.025 | [11] -0.028 | rosiglitazone 0.002 | [12] -0.001 | [13] 0.032

SMU1 (UniProt Q2TAY7)
inactive: [1] 0.007 | [2] 0.001 | [3] -0.006 | [4] 0.07 | Nexturastat A -0.054 | vemurafenib 0.012 | [5] 0.065 | [6] 0.011 | givinostat 0 | barasertib -0.013 | [7] -0.001 | volasertib -0.136 | [8] 0.008 | epoxomicin 0.006 | [9] -0.031 | [10] -0.038 | [11] -0.022 | rosiglitazone 0.02 | [12] 0.002 | [13] 0.002

Copied from the results shown (2 entries):
SNRPG (UniProt P62308)
inactive: [1] 0.007 | [2] -0.003 | [3] -0.001 | [4] -0.074 | Nexturastat A 0.04 | vemurafenib -0.032 | [5] -0.05 | [6] -0.07 | givinostat -0.05 | barasertib -0.012 | [7] 0.069 | volasertib 0.118 | [8] -0.111 | epoxomicin -0.112 | [9] 0.026 | [10] 0.025 | [11] 0.058 | rosiglitazone -0.001 | [12] 0.07 | [13] 0.099

SMC1A (UniProt Q14683)
inactive: [1] -0.03 | [2] -0.008 | [3] -0.008 | [4] 0.018 | Nexturastat A 0.016 | vemurafenib 0.028 | [5] 0.041 | [6] -0.014 | givinostat 0.084 | barasertib 0.007 | [7] -0.019 | volasertib -0.086 | [8] 0.011 | epoxomicin 0.027 | [9] -0.029 | [10] 0.037 | [11] -0.012 | rosiglitazone -0.009 | [12] -0.032 | [13] -0.065
